Laboratory results from PubChem BioAssay AID588499 (NMMLSC, 2011).
The campaign covered roughly 360,000 compounds. About 610 (0.17%) were called active. Inconclusive means that the source gave no clear call. Such entries were picked first, then a sample of the others. Cut-off read from the data, not from the text of the source: active = inhibition above about 30%; inconclusive = no clear call, values can overlap the other calls; inactive = below that.

Tested on: Botulinum neurotoxin type A light chain protease (Clostridium botulinum A str. ATCC 3502)
Test: blockers of BoNT/A LC substrate cleavage – biochemical, flow cytometry, MLPCN library, primary screen (AID 588499); note: plate controls were buffer without enzyme for full effect and enzyme alone for no effect
Details: multiplex microsphere protease substrate cleavage, at 10 µM, hits give high values

| Compound | inhibition |
| --- | --- |
| C=C(C)CSc1nnc([C@@H](NC(=O)OC(C)(C)C)C(C)CC)o1 (some centres undefined) | inconclusive: 2.8% |
| CCC(Oc1cc(Cl)ccc1Cl)C(=O)NN1C(=O)C2C3CCC(C3=C(C)C)C2C1=O (centres undefined) | inactive: 1% |
| O=C(c1ccco1)N1CCN(Cc2cc(=O)c(OCc3cccc(Cl)c3)co2)CC1 | inconclusive: 0.4% |
| Cc1ccc(CNc2nc(C)nc3sc4c(c23)CCC4)cc1 | inconclusive: -1.3% |
| O=C(NCc1ccccc1F)c1ccncc1 | inactive: 1.6% |
| COc1ccc(CNc2ccc3c(c2)CCC3)cc1Br | inconclusive: 5.7% |
| COc1cccc(CC(=O)N2CCC(CCC(=O)Nc3cccc(OC)c3)CC2)c1 | inactive: 0% |
| O=C(CCc1ccc(S(=O)(=O)N2CCOCC2)cc1)N1CCCC1 | inconclusive: -1.3% |
| CSCC[C@H](NC(=O)OC(C)(C)C)C(=O)N/N=C/c1ccc2nccnc2c1 | inconclusive: -0.7% |
| CN(C)CCn1c(=O)n(-c2ccc(F)cc2)c(=O)c2c3c(sc21)CCCCC3 | inconclusive: -53.6% |
| CCOC(=O)N1CCC(n2c(=S)[nH]c3cc(OCC)c(OCC)cc3c2=O)CC1 | inconclusive: 9.3% |
| COc1ccc([C@H]2CC(=O)C=C(c3cccc(F)c3OC)C2)cc1 | inactive: 0.1% |
| CC1=NN(C(=O)c2cccc(Cn3nc(C)c([N+](=O)[O-])c3C)c2)C(O)(C(F)(F)F)C1 (centres undefined) | inactive: -3.9% |
| COC(=O)c1ccc(C2/C(=C(/O)c3ccc(OC)cc3)C(=O)C(=O)N2CC2CCCO2)cc1 (centres undefined) | inconclusive: -2.1% |
| O=C(COC(=O)COc1ccccc1)Nc1ccc(Br)cc1F | inactive: -0.2% |
| CCOC(=O)c1c(C)c(C(=O)NCCc2ccc(S(N)(=O)=O)cc2)c(C)n1CC | inconclusive: 0.9% |
| CC(=O)C1=C(O)C(=O)N(c2ccc(Br)cn2)C1c1ccc(Br)cc1 (centres undefined) | inconclusive: -3.6% |
| Cc1ccc(C)c(SCC(=O)OCC(=O)NCCNC(=O)COC(=O)CSc2cc(C)ccc2C)c1 | inconclusive: 5.5% |
| CCCn1[nH]cc(SC)c(=O)c1=O | inconclusive: -1.5% |
| COc1ccc(CCNC(=O)CSCC(=O)Nc2ccccc2)cc1OC | inconclusive: -6.2% |
| O=S(=O)(c1ccc(-c2cc(C(F)(F)F)on2)s1)N1CCCC1 | inconclusive: 28.3% |
| Cc1ccccc1-c1ccc(=O)n(CC(=O)Nc2ccc(N3CCOCC3)cc2)n1 | inconclusive: 1.5% |
| CSc1nc(-c2ccccc2)ccc1C(N)=O | inconclusive: -5.6% |
| CCc1cc(=O)oc2cc(OCC(=O)OC)c(Cl)cc12 | inconclusive: -0.3% |

| Compound | inhibition |
| --- | --- |
| CCCCCn1c(=O)c(C(=O)Nc2ccccc2)c(O)c2ccccc21 | inconclusive: 9% |
| CCOC(=O)c1c(NC(=S)Nc2ccc(Cl)cc2)sc2c1CCN(C)C2 | active: 46.5% |
| Cc1cc(C(=O)NNS(=O)(=O)c2cccc(Cl)c2)nn1C(C)(C)C | inconclusive: -61.9% |
| COc1cccc(-n2nnc3c(=O)n(Cc4ccccc4F)cnc32)c1 | inactive: -2.8% |
| CC(C)(C)S(=O)(=O)c1cnc2c(-c3ccc(F)cc3)cnn2c1N | inconclusive: -2.2% |
| O=C1OCc2cccc3cccc1c23 | inactive: -0.3% |
| CN(CCCC(=O)NCc1ccco1)S(=O)(=O)c1ccccc1 | inconclusive: 26.8% |
| COc1ccc(N2CCN(C3CCCN(Cc4ccccc4OCCO)C3)CC2)cc1 (centres undefined) | inconclusive: -6% |
| CCN(c1cccc(C)c1)S(=O)(=O)c1cc2c3c(c1)CCC(=O)N3CCC2 | inconclusive: 7.6% |
| COc1ccccc1/C=C/C=N/n1c(-c2ccco2)n[nH]c1=S | inconclusive: 3.1% |
| COc1ccc([N+](=O)[O-])cc1NC(=O)CCSCCc1ccccn1 | inactive: 0.3% |
| CSc1nc(N)nc(SCC(=O)CC(=O)OC(C)C)c1C#N | inconclusive: -1.1% |
| C=CCOc1ccc(/C(CC)=N/O)c(OC)c1 | inconclusive: -2.1% |
| CCOC(=O)c1c(C)c(C(=O)NCCCOC)c(C)n1C | inconclusive: 1.8% |
| COc1ccc(N2CCN(C(=O)C3CCN(S(=O)(=O)c4ccc5c(c4)oc(=O)n5C)CC3)CC2)cc1 | inactive: 1.1% |
| N#C/C(=N\Nc1ccc(Cl)cc1)C(=O)c1ccccc1 | inactive: -0.6% |
| COC(=O)c1[nH]c2ccccc2c1NC(=O)c1c(F)cccc1F | inconclusive: 0.9% |
| Cc1ccc(NC2=NC(c3ccc(O)cc3)n3c(nc(C)cc3=O)N2)cc1 (centres undefined) | inconclusive: -1.7% |
| Cc1cc(OCC(=O)NCCCN2CCOCC2)cc(C)c1Cl | inconclusive: -4.1% |
| Cc1cccc(NC(=O)COc2ccc(Br)cc2)n1 | inconclusive: 2% |
| Cc1cc2ccccc2n1CCNC(=O)c1cccs1 | active: 78.7% |
| Cc1cc2ccccc2n1CCNC(=O)C1CCCCC1 | active: 96.1% |
| COc1ccc(Cl)cc1C(=O)NNC(=O)CN1C(=O)C2CC=CCC2C1=O (centres undefined) | inactive: -0.2% |
| COc1ccc(C(=O)NC2CCN(CC(=O)NCc3cccc(OC)c3)CC2)cc1 | inactive: -0.5% |

| Compound | inhibition |
| --- | --- |
| O=C(Nc1cccc(C(F)(F)F)c1)c1ccc2nc(-c3ccco3)c(-c3ccco3)nc2c1 | active: 63.4% |
| CC1=CC(C)(C)N(C(=O)c2ccccc2)c2ccc(C)cc21 | inactive: 0.2% |
| Cc1cc(C)n2nc(SC(C)C(=O)N3CCC4(CC3)OCCO4)nc2n1 (centres undefined) | inconclusive: -4.7% |
| O=C(Nc1ccc(Cl)cc1Cl)c1n[nH]c(Cn2cncn2)n1 | inconclusive: -0.6% |
| O=C(CSc1ncccn1)Nc1ccccc1 | inconclusive: 3.3% |
| O=C(CS(=O)c1cccc(Cl)c1)Nc1ccccc1Cl (centres undefined) | inconclusive: 0.3% |
| O=C(Cn1nc2n(c1=O)-c1ccccc1SC2)N/N=C/c1cccnc1 | inconclusive: 2% |
| CC1(C)Cc2ccccc2-c2nc(CN3CCOCC3)[nH]c(=O)c21 | inconclusive: -0.2% |
| CCC(=O)N1N=C(c2c(O)n(C)c(=O)n(C)c2=O)CC1c1ccccc1 (centres undefined) | inconclusive: 11.7% |
| OCCN=C1CCCc2c1[nH]c1ccc(Cl)cc21 | inconclusive: -32.5% |
| CCOc1ccc(N2CC(C(=O)Nc3ccc(S(=O)(=O)N4CCOCC4)cc3)CC2=O)cc1 (centres undefined) | inconclusive: -0.9% |
| CC(C)Sc1nnc([C@H](C)NC(=O)OC(C)(C)C)o1 | inconclusive: -2.6% |
| O=C1/C(=C/c2cccs2)SC(=S)N1N1CCOCC1 | inconclusive: 30.9% |
| COc1ccc(S(=O)(=O)N2CCOCC2)c2ccccc12 | inconclusive: -3.8% |
| Cc1ccc(C)c(C(=O)CN2Cc3ccccc3C2=O)c1 | inactive: 0% |
| Cc1c(C)c2ccc(OCC(=O)NCCCN3CCCC3=O)cc2oc1=O | inactive: -2.1% |
| CN(C)c1ccc(/C=N/NC(=O)C(O)(c2ccccc2)c2ccccc2)o1 | inconclusive: -3.1% |
| CC1(C)CC(=O)c2cnc(NCC3CCCO3)nc2C1 (centres undefined) | inactive: 0% |
| CCCC(C)C(=O)Nc1nnc(C)s1 (centres undefined) | inconclusive: -3.3% |
| Cc1cccc(Cc2nnc(CCC(=O)NCc3cnc4ccccn34)o2)c1 | inactive: -0.7% |
| Cc1ccc(N2CCN(/N=C/c3cccs3)CC2)cc1 | inconclusive: 5.5% |
| COc1cc(/C=C2/SC(=S)N(Cc3ccccc3)C2=O)ccc1O | active: 30.2% |
| COC(=O)c1nnn(CC(=O)Nc2ccc(C)c(F)c2)c1C(=O)OC | inconclusive: -3.9% |
| [O-][N+](=Cc1ccccc1)CC1(O)CCCCC1 | inactive: -0.1% |

| Compound | inhibition |
| --- | --- |
| O=c1ccc(=O)n(-c2ccccc2)[nH]1 | inconclusive: 3.4% |
| O=c1[nH]c(CSc2nnc(-c3ccncc3)n2Cc2ccco2)nc2ccccc12 | inconclusive: -1% |
| Cc1cc(NC(=O)CSCC(=O)OCc2nnc(-c3ccc(F)cc3)o2)no1 | inactive: 1.4% |
| COc1ccc(S(=O)(=O)N2CCCCC2c2cc(C(=O)NCc3cccnc3)no2)cc1 (centres undefined) | inactive: 0.6% |
| C[C@H]1O[C@H]1P(=O)(O)O | inactive: -0.4% |
| Cc1cc(-c2nnc(SCC(=O)Nc3ccccc3)n2C)no1 | inconclusive: 0.7% |
| COc1cc(CN2CCN(c3cccc(C)c3C)CC2)cc(Br)c1O | inconclusive: -4.1% |
| Cc1nc(NC(=O)COC(=O)CCS(=O)(=O)c2ccccc2Cl)c(Cl)cc1Cl | inconclusive: 3.2% |
| CCOC(=O)CSc1nc2ccccc2n2cnnc12 | inconclusive: -0.9% |
| Cc1ccn(CC(=O)O)c(=O)c1 | inconclusive: -0.1% |
| COc1ccc(C2NC(=S)NC3=C2N2CCC3CC2)cc1 (centres undefined) | inconclusive: 6.1% |
| Cn1c(SCc2ccon2)nc2ccccc2c1=O | inconclusive: -1.1% |
| Cc1c(C)c2ccc(OCc3ccc(C(=O)O)o3)c(C)c2oc1=O | inconclusive: -1.9% |
| COC(=O)c1ccc2c(=O)[nH]c(CN3c4ccccc4CC3C)nc2c1 (centres undefined) | inconclusive: 2.5% |
| O=c1c(-c2cc3ccccc3o2)[n+]([O-])c2ccccc2n1OCc1ccccn1 | inactive: 8.5% |
| Cc1cnc(NC(=O)CSc2nnc(Cc3ccccc3)o2)s1 | inconclusive: 14.6% |
| COc1cccc(-n2c(=O)n(Cc3ccccc3)c(=O)c3[nH]cnc32)c1 | inconclusive: 10.2% |
| Cc1ccc(-c2[nH][nH]c(=O)c(=O)c2N=Nc2ccccc2)cc1 | inactive: -0.7% |
| CC(C)(C)[C@H](N)C(=O)N[C@H]1CCC2C3CC=C4C[C@@H](O)CC[C@]4(C)C3CC[C@@]21C (some centres undefined) | inactive: 0.6% |
| COc1ccc(-c2csc(N)n2)cc1 | inactive: -1.1% |
| CC(=O)Nc1nnc([N+](=O)[O-])s1 | inactive: -0.1% |
| CN(C)c1ccc(/C=N/NC(=O)c2ccc3nc[nH]c3c2)cc1 | inconclusive: 3.8% |

Random excerpt: 7 records from the list

| Compound | inhibition |
| --- | --- |
| CC(=O)Nc1nnc([N+](=O)[O-])s1 | inactive: -0.1% |
| C[C@H]1O[C@H]1P(=O)(O)O | inactive: -0.4% |
| Cc1ccc(-c2[nH][nH]c(=O)c(=O)c2N=Nc2ccccc2)cc1 | inactive: -0.7% |
| Cn1c(SCc2ccon2)nc2ccccc2c1=O | inconclusive: -1.1% |
| Cc1cnc(NC(=O)CSc2nnc(Cc3ccccc3)o2)s1 | inconclusive: 14.6% |
| CN(C)c1ccc(/C=N/NC(=O)c2ccc3nc[nH]c3c2)cc1 | inconclusive: 3.8% |
| O=c1c(-c2cc3ccccc3o2)[n+]([O-])c2ccccc2n1OCc1ccccn1 | inactive: 8.5% |
